Where “and” joins values, the source holds several entries; their conditions need not be identical. Equal values may be shown once. The campaign covered roughly 300,000 compounds. About 5,400 (1.8%) were called active. The inconclusive results got no clear call from the source; some entries with a clear call stand among them for comparison. Calls come from the whole dose curve; tested in HEK293 cells. Where the call is inconclusive, the potency comes from a doubtful curve fit.
Test: qHTS for inhibitors of binding or entry into cells for Marburg Virus
Details: Marburg virus pseudotyped entry inhibition, cell reporter; series mostly up to 37.8 µM
Potency is the fitted concentration of half-maximal effect.

| SMILES | Potency |
| --- | --- |
| COC(=O)CC=C[C@@H](C)[C@@H](C=NOC[C@@H](C)[C@H](OCc1ccccc1)C(C)C)NS(=O)(=O)c1ccc(C)cc1 | inactive |
| O=C(CCc1ccccc1)Nc1ccc(NC(=O)c2ccco2)nc1 | inactive |
| CC(=O)c1cc(C#N)c(SCC(=O)C(C)(C)C)nc1C | inconclusive: 0.164 µM [activator, partial curve, poor fit] |
| COc1ccc(CCN2C(=O)CC(NNC(=O)c3ccccc3Br)C2=O)cc1OC (configuration not stated) | inactive |
| O=C(Nc1ccccc1F)C(c1ccccc1)c1ccccc1 | inconclusive: 5.62 µM [inhibitor, single point] |
| CCSc1nc(-c2cccnc2)ccc1C#N | inactive |
| O=C(NCCc1ccco1)C(=O)NCC1OCCCN1S(=O)(=O)c1ccccc1 (configuration not stated) | inconclusive: 7.08 µM [activator, partial curve] |
| S=C(S)N1CCCC1 | inconclusive: 10.3 µM [inhibitor, partial curve, poor fit] and inconclusive: 708 nM [inhibitor, full curve] |
| CN(C)c1nc(-c2ccccn2)nnc1-c1ccccc1 | inconclusive: 5.01 µM [inhibitor, full curve, poor fit] |
| CCOc1ccccc1/C=N/Nc1ccnc(=O)[nH]1 | inconclusive: 6.31 µM [activator, single point] |
| CCOC(=O)Cc1nnc(NC(=O)CSc2ccc(C)cc2)s1 | inactive |
| C/C(=N\N1CCN(c2ccc(Cl)cc2)CC1)c1cccs1 | inconclusive: 11.2 µM [activator, partial curve, poor fit] |
| Cc1cc(C=O)c(C)n1-c1ccc(N2CCCCC2)c([N+](=O)[O-])c1 | inconclusive: 11.2 µM [inhibitor, partial curve, poor fit] |
| COCC1CCCCN1Cc1cn(-c2ccccc2)nc1-c1ccc2c(c1)OCO2 (configuration not stated) | inconclusive: 20 µM [inhibitor, single point] |
| O=C(Nc1cccc(Cl)c1)Nc1ccc(Cl)cn1 | inactive |
| Cc1ccc(S(=O)(=O)NCC(=O)NNC(=O)c2ccc(Br)cc2)cc1C | inactive |
| Nc1ccc(Oc2ccc([N+](=O)[O-])cc2[N+](=O)[O-])cc1 | inactive |
| COc1ccc(S(=O)(=O)N(C)CC(=O)Nc2ccccc2C(F)(F)F)cc1Cl | inconclusive: 0.58 µM [activator, partial curve, poor fit] |
| CCOc1ccc(Nc2nc(N)nc(CN(C)C3CCCCC3)n2)cc1 | inconclusive: 0.92 µM [activator, full curve, poor fit] |
| NCCc1c[nH]c2ccc(O)cc12 | inconclusive: 4.61 µM [activator, full curve, poor fit] |
| Cc1cc(NC(=O)CSCC(=O)N(c2cccc(Cl)c2)C(C(=O)NC2CCCCC2)c2ccc(O)c(O)c2)no1 (configuration not stated) | inactive |
| O=C(Nc1c(C(=O)N2CCN(c3ccccc3F)CC2)oc2ccccc12)c1ccc(Br)o1 | inconclusive: 35.5 µM [inhibitor, single point] |
| Cc1c(C(=O)Nc2cccc(F)c2)cnn1-c1ccccc1 | inconclusive: 35.5 µM [inhibitor, single point] |

| SMILES | Potency |
| --- | --- |
| CN(C)S(=O)(=O)c1cccc(-c2cn3cccnc3n2)c1 | inconclusive: 5.62 µM [activator, single point] |
| Cc1cc(=O)[nH]c(N=N/C(=N/Nc2ccccc2C)c2ccccc2)n1 | active: 0.794 µM |
| O=C(CCCc1c[nH]c2ccccc12)NCC1COc2ccccc2O1 (configuration not stated) | inconclusive: 35.5 µM [inhibitor, single point] |
| O=[N+]([O-])c1ccc2nc(-c3ccc(OC(F)F)cc3)cn2c1 | inconclusive: 6.31 µM [inhibitor, full curve, poor fit] |
| CC1(C)CCC2CC(C3=NC(=S)NCC3)CCC2O1 (configuration not stated) | inconclusive: 7.94 µM [inhibitor, partial curve, poor fit] |
| N#Cc1cc2c(nc1SCC(=O)Nc1sc3c(c1C#N)CCC3)CCCCCC2 | inconclusive: 29.1 µM [inhibitor, single point] |
| O=C(NCCc1ccccc1)/C(=C\c1ccccc1)NC(=O)c1ccco1 | inactive |
| COc1cccc(OC)c1OCC(C)CNCC1CCCO1 (configuration not stated) | inactive |
| CC(=O)c1c(C)[nH]c(C(=O)Nc2cccc3ccccc23)c1C | inactive |
| COc1ccccc1NS(=O)(=O)c1ccc(C)c(NC(=O)c2ccc(S(=O)(=O)N3CCCCCC3)cc2)c1 | inconclusive: 2.82 µM [inhibitor, full curve, poor fit] |
| Cc1onc(-c2ccccc2Cl)c1C(=O)Nc1ccccc1C(=O)NC(C)C | active: 9.2 µM |
| CCOc1cc(CNc2ccc(S(N)(=O)=O)cc2)cc(Cl)c1OC | inconclusive: 3.66 µM [inhibitor, partial curve, poor fit] |
| CCN1CCN(C(=O)/C=C/c2c(F)cccc2Cl)CC1 | inconclusive: 22.4 µM [activator, single point] |
| Cc1onc(-c2c(Cl)cccc2Cl)c1C(=O)N1C=CC(C(F)(F)F)=NCC1 | inconclusive: 29.1 µM [inhibitor, single point] |
| C[C@@H]1CC[C@H]2C(=O)NC[C@@H](O)CN2[C@@H]1c1ccc(Br)cc1 | inconclusive: 0.668 µM [activator, partial curve, poor fit] |
| COc1ccc(NC(=O)/C(C#N)=C/c2ccc(Br)o2)cc1 | inconclusive: 29.1 µM [activator, single point] |
| CC(=O)N1N=C(c2ccc([N+](=O)[O-])cc2)CC1c1ccccc1Cl (configuration not stated) | inconclusive: 7.94 µM [inhibitor, partial curve, poor fit] |
| Cc1ccc(-c2noc(CN3CCN(Cc4ccccc4)CC3)n2)cc1 | inconclusive: 0.13 µM [activator, single point] |
| O=C(CSc1oc(-c2ccc(F)cc2)nc1S(=O)(=O)c1ccc(Cl)cc1)c1ccccc1 | inconclusive: 22.4 µM [inhibitor, single point] |
| COc1cc(CN(C)CC2CCCN(CCc3cccc(C(F)(F)F)c3)C2)ccc1O (configuration not stated) | inconclusive: 10 µM [inhibitor, partial curve, poor fit] |
| O=C(Nc1ccccc1)N(O)c1ccc(Cl)cc1 | inconclusive: 35.5 µM [activator, single point] |
| CCCC1=Nc2cc(C(=O)NCCCOC(C)C)ccc2Sc2ccccc21 | inconclusive: 2.06 µM [inhibitor, full curve, poor fit] |
| CC(=O)N=c1sc2nc3ccccc3nc2n1N(C(C)=O)C(C)=O | inactive |

Shown as labelled records: part of the list above.
NCCc1c[nH]c2ccc(O)cc12
  Potency: inconclusive: 4.61 µM [activator, full curve, poor fit]
COc1ccc(NC(=O)/C(C#N)=C/c2ccc(Br)o2)cc1
  Potency: inconclusive: 29.1 µM [activator, single point]

Later entries.

| SMILES | Potency |
| --- | --- |
| CCN(CC)S(=O)(=O)c1cc(NC(=O)C(=O)c2c(-c3ccccc3)cc3ccccn23)ccc1C | inconclusive: 1.46 µM [inhibitor, full curve, poor fit] |
| CNC(=O)/C(C#N)=C/c1ccc(-c2ccc(Cl)cc2)o1 | inconclusive: 4.47 µM [activator, full curve, poor fit] |
| Nc1nonc1-c1nc2ccccc2n1Cc1ccc(Cl)cc1 | inactive |
| COC(=O)c1nnn(-c2ccc(Cl)cc2)c1C(=O)OC | inconclusive: 6.31 µM [activator, single point] |
| O=C(CCS(=O)(=O)c1nc(-c2ccc3c(c2)OCO3)cc(C(F)(F)F)n1)Nc1ccc(F)cc1F | inconclusive: 3.98 µM [inhibitor, single point] |
| CCS(=O)(=O)c1ncc(Cl)c(C(=O)Nc2c(C(=O)c3ccc(C)cc3)oc3ccccc23)n1 | inactive |
| CC(C)OC(=O)Nc1ccc2c(c1)N(C(=O)CCN1CCN(CCO)CC1)c1ccccc1CC2 | inconclusive: 11.2 µM [inhibitor, single point] |
| COc1ccc(OC)c(S(=O)(=O)NCC(c2ccco2)N2CCc3ccccc32)c1 (configuration not stated) | inconclusive: 22.4 µM [inhibitor, single point] |
| COc1cc(NC(=O)c2cccc(Br)c2)nc(OC)n1 | inconclusive: 2.82 µM [activator, single point] |
| O=C(O)c1ccc(-c2nc(-c3ccccc3)cs2)cc1 | inactive |
| N#CCC(=O)Nc1ccc(C(=O)NNC(=S)NC2CCCCC2)cc1 | inactive |
| CC1CCC(C(=O)NC(C(=O)NCCN2CCC(C)CC2)C(C)C)CC1 (configuration not stated) | inconclusive: 2.82 µM [inhibitor, partial curve, poor fit] |
| CCOc1ccc(Nc2nc(N)c([N+](=O)[O-])c(NCc3ccccc3)n2)cc1 | inconclusive: 7.08 µM [inhibitor, full curve, poor fit] |
| CCCC(=O)Nc1ccc(NC(=S)NC(=O)c2ccccc2[N+](=O)[O-])cc1 | inconclusive: 29.1 µM [inhibitor, single point] |
| Cc1ccc(Nc2nc(/N=C/N(C)C)n[nH]2)cc1C | inactive |
| O=C(C1CCCCC1)N1C[C@H](O)[C@H](n2cc(-c3ccc(F)cc3)nn2)C[C@@H]1c1ccccc1 | inconclusive: 9.95 µM [inhibitor, full curve, poor fit] |
| COc1ccc(NC(=O)Nc2ccccc2F)cc1 | inconclusive: 9.2 µM [inhibitor, partial curve] |
| Cc1ccnc(NC(=O)C2CC(=O)N(Cc3ccccc3)C2)c1 (configuration not stated) | inconclusive: 3.55 µM [activator, partial curve, poor fit] |
| O=C(COC(=O)c1ccc2c(c1Cl)C(=O)c1ccccc1C2=O)NC1CC1 | inactive |
| NS(=O)(=O)c1ccc(CCNC(=O)c2cncc(Br)c2)cc1 | inconclusive: 1.26 µM [inhibitor, single point] |
| Cc1ccc(-c2c(C(=O)N(C)Cc3ccccc3)oc(=O)c3ccccc23)cc1 | inconclusive: 4.47 µM [inhibitor, single point] and inconclusive: 6.31 µM [inhibitor, single point] |
